Measurements: PMC8917353
No constants are given. Whether binding was seen depends on the method and setting. In cells and extracts the contact can be indirect. Some binding calls cover weakened binding; strength is not graded here.

By UniProt entry, the sequences of proteins in these tests, tags left out.
UniProt P62834: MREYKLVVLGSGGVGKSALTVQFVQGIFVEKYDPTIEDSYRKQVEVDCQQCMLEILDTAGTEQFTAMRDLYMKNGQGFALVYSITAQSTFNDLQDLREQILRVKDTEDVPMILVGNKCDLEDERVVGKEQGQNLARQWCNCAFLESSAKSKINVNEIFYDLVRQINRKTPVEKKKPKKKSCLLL

B1: mCherry-KRIT1-R452E MT-RE construct with a stop codon after the C-terminal cysteine of the lipid modification sequence (…) (protein, UniProt O00522 1-736)
chain: MGNPENIEDAYVAVIRPKNTASLNSREYRAKSYEILLHEVPIEGQKKKRKKVLLETKLQGNSEITQGILDYVVETTKPISPANQGIRGKRVVLMKKFPLDGEKMGREASLFIVPSVVKDNTKYTYTPGCPIFYCLQDIMRVCSESSTHFATLTARMLIALDKWLDERHAQSHFIPALFRPSPLERIKTNVINPAYATESGQTENSLHMGYSALEIKSKMLALEKADTCIYNPLFGSDLQYTNRVDKVVINPYFGLGAPDYSKIQIPKQEKWQRSMSSVTEDKERQWVDDFPLHRSACEGDSELLSRLLSERFSVNQLDSDHWAPIHYACWYGKVEATRILLEKGKCNPNLLNGQLSSPLHFAAGGGHAEIVQILLNHPETDRHITDQQGRSPLNICEENKQNNWEEAAKLLKEAINKPYEKVRIYRMDGSYRSVELKHGNNTTVQQIMEGMELSQETQQYFTIWICSENLSLQLKPYHKPLQHVRDWPEILAELTNLDPQRETPQLFLRRDVRLPLEVEKQIEDPLAILILFDEARYNLLKGFYTAPDAKLITLASLLLQIVYGNYESKKHKQGFLNEENLKSIVPVTKLKSKAPHWTNRILHEYKNLSTSEGVSKEMHHLQRMFLQNCWEIPTYGAAFFTGQIFTKASPSNHKVIPVYVGVNIKGLHLLNMETKALLISLKYGCFMWQLGDTDTCFQIHSMENKMSFIVHTKQAGLVVKLLMKLNGQLMPTERNSKKKPKKKSC
B2: mCherry-KRIT1 MT-APAA-RE construct with a stop codon after the C-terminal cysteine of the lipid modification sequence (…) (protein, UniProt O00522 1-736)
chain: MGNPENIEDAYVAVIRPKNTASLNSREYRAKSYEILLHEVPIEGQKKKRKKVLLETKLQGNSEITQGILDYVVETTKPISPANQGIRGKRVVLMKKFPLDGEKMGREASLFIVPSVVKDNTKYTYTPGCPIFYCLQDIMRVCSESSTHFATLTARMLIALDKWLDERHAQSHFIPALFRPSPLERIKTNVIAPAAATESGQTENSLHMGYSALEIKSKMLALEKADTCIYNPLFGSDLQYTNRVDKVVINPYFGLGAPDYSKIQIPKQEKWQRSMSSVTEDKERQWVDDFPLHRSACEGDSELLSRLLSERFSVNQLDSDHWAPIHYACWYGKVEATRILLEKGKCNPNLLNGQLSSPLHFAAGGGHAEIVQILLNHPETDRHITDQQGRSPLNICEENKQNNWEEAAKLLKEAINKPYEKVRIYRMDGSYRSVELKHGNNTTVQQIMEGMELSQETQQYFTIWICSENLSLQLKPYHKPLQHVRDWPEILAELTNLDPQRETPQLFLRRDVRLPLEVEKQIEDPLAILILFDEARYNLLKGFYTAPDAKLITLASLLLQIVYGNYESKKHKQGFLNEENLKSIVPVTKLKSKAPHWTNRILHEYKNLSTSEGVSKEMHHLQRMFLQNCWEIPTYGAAFFTGQIFTKASPSNHKVIPVYVGVNIKGLHLLNMETKALLISLKYGCFMWQLGDTDTCFQIHSMENKMSFIVHTKQAGLVVKLLMKLNGQLMPTERNSKKKPKKKSC
B3: mCherry-KRIT1 192APAA195 R452E (protein, UniProt O00522 1-736)
chain: MGNPENIEDAYVAVIRPKNTASLNSREYRAKSYEILLHEVPIEGQKKKRKKVLLETKLQGNSEITQGILDYVVETTKPISPANQGIRGKRVVLMKKFPLDGEKMGREASLFIVPSVVKDNTKYTYTPGCPIFYCLQDIMRVCSESSTHFATLTARMLIALDKWLDERHAQSHFIPALFRPSPLERIKTNVIAPAAATESGQTENSLHMGYSALEIKSKMLALEKADTCIYNPLFGSDLQYTNRVDKVVINPYFGLGAPDYSKIQIPKQEKWQRSMSSVTEDKERQWVDDFPLHRSACEGDSELLSRLLSERFSVNQLDSDHWAPIHYACWYGKVEATRILLEKGKCNPNLLNGQLSSPLHFAAGGGHAEIVQILLNHPETDRHITDQQGRSPLNICEENKQNNWEEAAKLLKEAINKPYEKVRIYRMDGSYRSVELKHGNNTTVQQIMEGMELSQETQQYFTIWICSENLSLQLKPYHKPLQHVRDWPEILAELTNLDPQRETPQLFLRRDVRLPLEVEKQIEDPLAILILFDEARYNLLKGFYTAPDAKLITLASLLLQIVYGNYESKKHKQGFLNEENLKSIVPVTKLKSKAPHWTNRILHEYKNLSTSEGVSKEMHHLQRMFLQNCWEIPTYGAAFFTGQIFTKASPSNHKVIPVYVGVNIKGLHLLNMETKALLISLKYGCFMWQLGDTDTCFQIHSMENKMSFIVHTKQAGLVVKLLMKLNGQLMPTERNS
B4: mCherry-KRIT1-R452E with the negative lipidation control sequence (…) at the C-terminus (protein, UniProt O00522 1-736)
chain: MGNPENIEDAYVAVIRPKNTASLNSREYRAKSYEILLHEVPIEGQKKKRKKVLLETKLQGNSEITQGILDYVVETTKPISPANQGIRGKRVVLMKKFPLDGEKMGREASLFIVPSVVKDNTKYTYTPGCPIFYCLQDIMRVCSESSTHFATLTARMLIALDKWLDERHAQSHFIPALFRPSPLERIKTNVINPAYATESGQTENSLHMGYSALEIKSKMLALEKADTCIYNPLFGSDLQYTNRVDKVVINPYFGLGAPDYSKIQIPKQEKWQRSMSSVTEDKERQWVDDFPLHRSACEGDSELLSRLLSERFSVNQLDSDHWAPIHYACWYGKVEATRILLEKGKCNPNLLNGQLSSPLHFAAGGGHAEIVQILLNHPETDRHITDQQGRSPLNICEENKQNNWEEAAKLLKEAINKPYEKVRIYRMDGSYRSVELKHGNNTTVQQIMEGMELSQETQQYFTIWICSENLSLQLKPYHKPLQHVRDWPEILAELTNLDPQRETPQLFLRRDVRLPLEVEKQIEDPLAILILFDEARYNLLKGFYTAPDAKLITLASLLLQIVYGNYESKKHKQGFLNEENLKSIVPVTKLKSKAPHWTNRILHEYKNLSTSEGVSKEMHHLQRMFLQNCWEIPTYGAAFFTGQIFTKASPSNHKVIPVYVGVNIKGLHLLNMETKALLISLKYGCFMWQLGDTDTCFQIHSMENKMSFIVHTKQAGLVVKLLMKLNGQLMPTERNSKKKPKKKSSLLL

molecular target: GST-Rap1a (UniProt P62834); test: pull-down; 10 µg GST-Rap1a on GSH-Sepharose beads loaded with 1 mM GTPγS; 300 µg HEK293A lysate with mCherry-KRIT1 constructs, 5 mM DTT, 4°C overnight; washes in lysis buffer with 250 mM NaCl and 5 mM DTT; blot for KRIT1; only the target purified

binding, binds weakly:
B1
B2
B3
B4
